# This is one part of the list.
# Legend:
# Experiment in all cases: glycan array binding signal (z-score within array); higher = stronger binding
# Settings in all cases: glycan notation: IUPAC condensed, linker removed
# [1] = biological target: Gal(b1-3)GlcNAc(b1-6)[Gal(b1-3)]GalNAc
# Summary of the method: (§1)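 Glycan array data came from 3228 arrays in the Consortium for Functional Glycomics database, and only arrays with an available protein sequence were kept. Glycan names were put into IUPAC-condensed notation, and columns mapping to the same glycan were averaged. The binding signal is a within-array Z-score, averaged across arrays of one protein sequence run at different concentrations or buffers and across linkers. A negative Z-score can be read as non-binding.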
# [2] = biological target: Gal(b1-3)GlcNAc6S
# Summary of the method: as §1
# [3] = biological target: Gal(b1-3)[Fuc(a1-4)]GlcNAc
# Summary of the method: as §1
# [4] = biological target: Gal(b1-3)[Fuc(a1-4)]GlcNAc(b1-2)Man
# Summary of the method: as §1
# [5] = biological target: Gal(b1-3)[Fuc(a1-4)]GlcNAc(b1-2)Man(a1-3)[Gal(b1-3)[Fuc(a1-4)]GlcNAc(b1-2)Man(a1-6)]Man(b1-4)GlcNAc(b1-4)[Fuc(a1-6)]GlcNAc
# Summary of the method: as §1
# [6] = biological target: Gal(b1-3)[Fuc(a1-4)]GlcNAc(b1-3)Gal(b1-3)[Fuc(a1-4)]GlcNAc
# Summary of the method: as §1
# [7] = biological target: Gal(b1-3)[Fuc(a1-4)]GlcNAc(b1-3)Gal(b1-4)[Fuc(a1-3)]GlcNAc
# Summary of the method: as §1
# [8] = biological target: Gal(b1-3)[Fuc(a1-4)]GlcNAc(b1-6)GalNAc
# Summary of the method: as §1
# [9] = biological target: Gal(b1-3)[GlcNAc(b1-6)]GalNAc
# Summary of the method: as §1
# [10] = biological target: Gal(b1-3)[Neu5Ac(a2-6)]GalNAc
# Summary of the method: as §1
# [11] = biological target: Gal(b1-3)[Neu5Ac(a2-6)]GlcNAc(b1-4)Gal(b1-4)Glc
# Summary of the method: as §1
# [12] = biological target: Gal(b1-3)[Neu5Ac(b2-6)]GalNAc
# Summary of the method: as §1
# [13] = biological target: Gal(b1-4)Gal
# Summary of the method: as §1
# [14] = biological target: Gal(b1-4)GalNAc(a1-3)[Fuc(a1-2)]Gal(b1-4)GlcNAc
# Summary of the method: as §1
# [15] = biological target: Gal(b1-4)GalNAc(b1-3)[Fuc(a1-2)]Gal(b1-4)GlcNAc
# Summary of the method: as §1
# [16] = biological target: Gal(b1-4)Glc
# Summary of the method: as §1
# [17] = biological target: Gal(b1-4)Glc6S
# Summary of the method: as §1
# [18] = biological target: Gal(b1-4)GlcNAc
# Summary of the method: as §1
# [19] = biological target: Gal(b1-4)GlcNAc(a1-6)Gal(b1-4)GlcNAc
# Summary of the method: as §1
# [20] = biological target: Gal(b1-4)GlcNAc(b1-2)Man
# Summary of the method: as §1
# [21] = biological target: Gal(b1-4)GlcNAc(b1-2)Man(a1-3)Man(b1-4)GlcNAc(b1-4)GlcNAc
# Summary of the method: as §1
# [22] = biological target: Gal(b1-4)GlcNAc(b1-2)Man(a1-3)[Gal(b1-4)GlcNAc(b1-2)Man(a1-6)]Man(b1-4)GlcNAc(b1-4)GlcNAc
# Summary of the method: as §1
# [23] = biological target: Gal(b1-4)GlcNAc(b1-2)Man(a1-3)[Gal(b1-4)GlcNAc(b1-2)Man(a1-6)]Man(b1-4)GlcNAc(b1-4)[Fuc(a1-6)]GlcNAc
# Summary of the method: as §1
# [24] = biological target: Gal(b1-4)GlcNAc(b1-2)Man(a1-3)[Gal(b1-4)GlcNAc(b1-2)Man(a1-6)][Gal(b1-4)GlcNAc(b1-4)]Man(b1-4)GlcNAc(b1-4)[Fuc(a1-6)]GlcNAc
# Summary of the method: as §1
# [25] = biological target: Gal(b1-4)GlcNAc(b1-2)Man(a1-3)[Gal(b1-4)GlcNAc(b1-2)Man(a1-6)][GlcNAc(b1-4)]Man(b1-4)GlcNAc(b1-4)[Fuc(a1-6)]GlcNAc
# Summary of the method: as §1
# [26] = biological target: Gal(b1-4)GlcNAc(b1-2)Man(a1-3)[GlcNAc(b1-2)Man(a1-6)]Man(b1-4)GlcNAc(b1-4)GlcNAc
# Summary of the method: as §1
# [27] = biological target: Gal(b1-4)GlcNAc(b1-2)Man(a1-3)[GlcNAc(b1-4)][Gal(b1-4)GlcNAc(b1-2)Man(a1-6)]Man(b1-4)GlcNAc(b1-4)GlcNAc
# Summary of the method: as §1
# [28] = biological target: Gal(b1-4)GlcNAc(b1-2)Man(a1-3)[Man(a1-6)]Man(b1-4)GlcNAc(b1-4)GlcNAc
# Summary of the method: as §1
# [29] = biological target: Gal(b1-4)GlcNAc(b1-2)Man(a1-6)Man(b1-4)GlcNAc(b1-4)GlcNAc
# Summary of the method: as §1
# [30] = biological target: Gal(b1-4)GlcNAc(b1-2)Man(a1-6)[GlcNAc(b1-2)Man(a1-3)]Man(b1-4)GlcNAc(b1-4)GlcNAc
# Summary of the method: as §1
# [31] = biological target: Gal(b1-4)GlcNAc(b1-2)Man(a1-6)[Man(a1-3)]Man(b1-4)GlcNAc(b1-4)GlcNAc
# Summary of the method: as §1
# [32] = biological target: Gal(b1-4)GlcNAc(b1-2)[Gal(b1-4)GlcNAc(b1-4)]Man(a1-3)[Gal(b1-4)GlcNAc(b1-2)Man(a1-6)]Man(b1-4)GlcNAc(b1-4)GlcNAc
# Summary of the method: as §1
# [33] = biological target: Gal(b1-4)GlcNAc(b1-2)[Gal(b1-4)GlcNAc(b1-4)]Man(a1-3)[Gal(b1-4)GlcNAc(b1-2)[Gal(b1-4)GlcNAc(b1-6)]Man(a1-6)]Man(b1-4)GlcNAc(b1-4)GlcNAc
# Summary of the method: as §1
# [34] = biological target: Gal(b1-4)GlcNAc(b1-2)[Gal(b1-4)GlcNAc(b1-4)]Man(a1-3)[GlcNAc(b1-4)][Gal(b1-4)GlcNAc(b1-2)Man(a1-6)]Man(b1-4)GlcNAc(b1-4)GlcNAc
# Summary of the method: as §1
# [35] = biological target: Gal(b1-4)GlcNAc(b1-2)[Gal(b1-4)GlcNAc(b1-4)]Man(a1-3)[GlcNAc(b1-4)][Gal(b1-4)GlcNAc(b1-2)[Gal(b1-4)GlcNAc(b1-6)]Man(a1-6)]Man(b1-4)GlcNAc(b1-4)GlcNAc
# Summary of the method: as §1
# [36] = biological target: Gal(b1-4)GlcNAc(b1-2)[Gal(b1-4)GlcNAc(b1-6)]Man(a1-6)[Gal(b1-4)GlcNAc(b1-2)Man(a1-3)]Man(b1-4)GlcNAc(b1-4)GlcNAc
# Summary of the method: as §1
# [37] = biological target: Gal(b1-4)GlcNAc(b1-2)[Gal(b1-4)GlcNAc(b1-6)]Man(a1-6)[Gal(b1-4)GlcNAc(b1-2)Man(a1-3)]Man(b1-4)GlcNAc(b1-4)[Fuc(a1-6)]GlcNAc
# Summary of the method: as §1
binder,measurement,setting,value
PX9961M-bvu-482-23-482 (Bacteroides vulgatus) (protein) WLDLAPSTQVDTETSINVLSDIEFTLNGIYSTMQSSDAYSGRLVYYGDVTGDDMQAVSSTKRTGNYYRFNFTKDNGPSSHWSYLYSIIQNCNLILMNVDKLSIDEDETEYKNDLKGQALAIRGMALFDLTRIFGYPYLKDNGASLGVPIVKELSTIDSKPARNTVAECYTEIISDLKNSTELLSGDFNKGKVNRWAAMTLLSRVYLYKGEYNEALTMAENAIKGAEKEGYALWTNEEYPTAWGNDASASNPGEILFEIVNLTTDSPGKESMGYLNSYNGYDDMCITCSFYQLLKKDPKDVRLKILSFDKKYYAYVNKYQPQQGENITDANIPLIRLSEAYLNAAEAAVQTGDNAKAVKYLNSIVQRANPENSVEGKTLTLENVLDERRKELVAEGHRMYDVIRNGMTVKRIDVKDSDINKTKHNTAYMEYDWNFHKILLPIPKKEMDANPNMKQNPGYVD,glycan array binding signal (z-score),[1],-0.362
same,glycan array binding signal (z-score),[2],0.004
same,glycan array binding signal (z-score),[3],1.63
same,glycan array binding signal (z-score),[4],1.31
same,glycan array binding signal (z-score),[5],-0.174
same,glycan array binding signal (z-score),[6],-0.553
same,glycan array binding signal (z-score),[7],-0.266
same,glycan array binding signal (z-score),[8],-0.307
same,glycan array binding signal (z-score),[9],0.166
same,glycan array binding signal (z-score),[10],-0.734
same,glycan array binding signal (z-score),[11],-0.052
same,glycan array binding signal (z-score),[12],-0.587
same,glycan array binding signal (z-score),[13],0.253
same,glycan array binding signal (z-score),[14],-0.942
same,glycan array binding signal (z-score),[15],-0.62
same,glycan array binding signal (z-score),[16],-0.171
same,glycan array binding signal (z-score),[17],-0.022
same,glycan array binding signal (z-score),[18],-0.389
same,glycan array binding signal (z-score),[19],1.66
same,glycan array binding signal (z-score),[20],0.485
same,glycan array binding signal (z-score),[21],0.327
same,glycan array binding signal (z-score),[22],-0.313
same,glycan array binding signal (z-score),[23],0.373
same,glycan array binding signal (z-score),[24],-0.321
same,glycan array binding signal (z-score),[25],0.416
same,glycan array binding signal (z-score),[26],-0.875
same,glycan array binding signal (z-score),[27],-1.01
same,glycan array binding signal (z-score),[28],0.437
same,glycan array binding signal (z-score),[29],0.003
same,glycan array binding signal (z-score),[30],0.086
same,glycan array binding signal (z-score),[31],-0.551
same,glycan array binding signal (z-score),[32],0.427
same,glycan array binding signal (z-score),[33],1.23
same,glycan array binding signal (z-score),[34],-0.598
same,glycan array binding signal (z-score),[35],0.295
same,glycan array binding signal (z-score),[36],0.514
same,glycan array binding signal (z-score),[37],0.302

# Reformatted as tab-separated lines: entries from further up
binder	measurement	setting	value
PX9961M-bvu-482-23-482 (Bacteroides vulgatus) (protein) WLDLAPSTQVDTETSINVLSDIEFTLNGIYSTMQSSDAYSGRLVYYGDVTGDDMQAVSSTKRTGNYYRFNFTKDNGPSSHWSYLYSIIQNCNLILMNVDKLSIDEDETEYKNDLKGQALAIRGMALFDLTRIFGYPYLKDNGASLGVPIVKELSTIDSKPARNTVAECYTEIISDLKNSTELLSGDFNKGKVNRWAAMTLLSRVYLYKGEYNEALTMAENAIKGAEKEGYALWTNEEYPTAWGNDASASNPGEILFEIVNLTTDSPGKESMGYLNSYNGYDDMCITCSFYQLLKKDPKDVRLKILSFDKKYYAYVNKYQPQQGENITDANIPLIRLSEAYLNAAEAAVQTGDNAKAVKYLNSIVQRANPENSVEGKTLTLENVLDERRKELVAEGHRMYDVIRNGMTVKRIDVKDSDINKTKHNTAYMEYDWNFHKILLPIPKKEMDANPNMKQNPGYVD	glycan array binding signal (z-score)	[36]	0.514
same	glycan array binding signal (z-score)	[37]	0.302

# — the supplement of paper PMC8728848
